{"source": "patent US20040081659A1", "about": "(Merck & Co., Inc., priority 1997, published 2004)", "experiment": "general procedure: Fmoc solid-phase peptide synthesis; Fmoc-Ser(t-Bu)-WANG resin loaded at 0.82 mmol/g; DCC and HOBt", "details": "conjugation step, HPLC system A, acetate salt"}
{"substance": "des-Acetylvinblastine-4-O-(N-Acetyl-4-trans-L-Hyp-Ser-Ser-Chg-Gln-Ser-Ser-Pro) ester acetate", "values": [{"measurement": "final HPLC purity", "result": 98.9, "unit": "% pure"}]}
